Results published in patent US20120142109A1, “METHOD FOR PRODUCING T CELL POPULATION UNDER PRESENCE OF RETINOIC ACID” (priority 2009, published 2012).
At least one compound was matched to its structure with a doubt left.

What was measured:
[1] = tested on: CD8 single positive cells; assay: IL-4, IFN-γ and perforin-producing cells in response to MAGE-A4-derived peptide p143; assay type: cell-based, human; conditions: Example 5, FIG. 20; R- (retinoic acid before gene transfer) compared with OR
[2] = tested on: gene-transferred cell; assay: Provirus copy number of the transferred gene; assay type: cell-based, human
Procedure: The provirus copy number of the transferred gene in the gene-transferred cell was measured with Provirus Copy Number Detection Primer Set. Human (manufactured by TAKARA BIO INC.). In FIG. 6, the ordinate axis indicates the copy number of the transferred gene in a gene-transferred cell. As a result, the copy number was increased by a combination of stimulation by an anti-CD3 antibody alone or fibronectin fragment/anti-CD3 antibody stimulation with addition of retinoic acid, and the increase of the copy number correlated with increase in gene transfer efficiency.
The results of measurement of the copy number of the transferred gene in the gene-transferred cell into which the gene was transferred using the virus-bound plate for gene transfer are shown in FIG. 11. In FIG. 11, the ordinate axis indicates the copy number of the transferred gene in the gene-transferred cell. As a result, the copy number under the combination condition of stimulation by an anti-CD3 antibody alone or fibronectin fragment/anti-CD3 antibody stimulation with addition of retinoic acid was about 2 times the copy number under the condition of no addition of retinoic acid. The copy number correlated with gene transfer efficiency.
The provirus copy number of the transferred gene in the cultured cells was measured using Provirus Copy Number Detection Primer Set. Human (manufactured by TAKARA BIO INC.). The ordinate axis in FIG. 25 indicates the copy number of the transferred gene in the cultured cells. As a result, the provirus copy number was increased in “R-” in which gene transfer was carried out in the presence of retinoic acid, as compared with “O-” in which gene transfer was carried out without addition of retinoic acid. That is, it was made clear that gene transfer efficiency was increased by adding retinoic acid before gene transfer.

CC1=C(/C=C/C(C)=C/C=C/C(C)=C/C(=O)O)C(C)(C)CCC1 [retinoic acid]
ratio of Tc2 and Tc1 [1]: higher | copy number of the transferred gene in gene-transferred cell ([2]; Example 2, FIG. 6, MAGE-A4 TCR gene, 10 nM retinoic acid with anti-CD3 antibody alone or fibronectin fragment/anti-CD3 antibody, 10th day): increased | provirus copy number, effect of retinoic acid added after gene transfer ([2]; Example 6, FIG. 25, O- vs OR, R- vs RR, 11th day): slight difference | provirus copy number ([2]; Example 6, FIG. 25, R- (gene transfer in presence of retinoic acid) compared with O-, 11th day): increased
